The match of structure and compound is tentative.
Experiment: Pharmacokinetics (plasma exposure) after i.v. or p.o. dosing, non-compartmental analysis
Conditions: rat, 10 mg/kg, DMSO/PEG400/PBS (5%/30%/65%)

O=C(O)CC/C=C\C[C@@H]1CO[C@H](c2ccccc2Cl)O[C@@H]1c1ccccc1O
T-Last: 12 h | Terminal Half-life elimination, t½z: 1.22 ± 0.367 h | Tmax: 3.38 ± 2.28 h
